The results in this text go back to publication PMC4749390.

The chains behind the UniProt entries cited, without tags or fusion partners.
UniProt O00482: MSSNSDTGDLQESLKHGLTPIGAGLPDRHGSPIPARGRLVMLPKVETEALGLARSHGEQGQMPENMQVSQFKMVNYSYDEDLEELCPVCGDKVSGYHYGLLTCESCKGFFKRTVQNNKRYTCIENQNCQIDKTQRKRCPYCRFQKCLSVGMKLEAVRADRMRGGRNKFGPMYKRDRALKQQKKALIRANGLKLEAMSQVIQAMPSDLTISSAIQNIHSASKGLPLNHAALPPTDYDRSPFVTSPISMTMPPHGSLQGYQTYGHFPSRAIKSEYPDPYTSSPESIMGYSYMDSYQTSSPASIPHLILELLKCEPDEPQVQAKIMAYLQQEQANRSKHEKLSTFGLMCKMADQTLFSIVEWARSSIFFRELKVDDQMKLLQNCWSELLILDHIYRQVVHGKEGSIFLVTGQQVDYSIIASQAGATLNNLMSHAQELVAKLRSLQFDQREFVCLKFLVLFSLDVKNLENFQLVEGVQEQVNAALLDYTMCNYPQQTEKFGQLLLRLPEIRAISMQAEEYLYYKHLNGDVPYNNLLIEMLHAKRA

No constants are given. Whether binding was seen depends on the method and setting.

This assay has as its target recombinant full-length human LRH-1 (FL-hLRH-1) (human) (UniProt O00482). Nature of the assay: native gel or EMSA; hLRH-1 bound to a 24 bp duplex of the Inhibin-A promoter, after size exclusion chromatography on Superdex 200 (16/60); both purified. Background: In EMSA bound probe runs differently from free probe, usually more slowly.

On to “recombinant full-length human LRH-1 (FL-hLRH-1) (from UniProt O00482 1-541)”, for which the binding result is recorded as “no binding”.
